{"source": "PubChem BioAssay AID1159579, Peter MacCallum Cancer Centre – 2015", "test": "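Follow-up screen seeking modulators of motility in lymphatic endothelial cells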 (follow-up of hits)", "cells": "human dermal lymphatic endothelial cells", "reagent": "single siRNA against human genes, 25 nM", "read-out": "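High content images of wound closure area and cell nuclei counts, each the average of two wells, expressed against mock transfection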", "reading the numbers": "migration relative to mock: higher = more migration into the scratch; mean nuclei count: higher = more cells remaining", "call rule": "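Called active when the migration ratio is 0.6 or lower (impaired) or 1.3 or higher (accelerated), but inactive whenever the mean nuclei count falls under 3300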", "meaning of the calls": "active = migration changed (impaired or accelerated); inactive = no migration change, or too few cells", "note": "In all, the deposit lists about 2,000 reagents; this is a part drawn at random. 549 of all reagents (27%) count as active. 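Some migration ratios are negative; siRNAs with too few cells are inactive whatever their migration ratio.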 A number with no mark means an inactive call. The numbers tell different reagents against one gene apart. The record does not give: the time to read-out."}
{"target gene":"ARMC10 (armadillo repeat containing 10)","siRNA no.":1,"migration relative to mock":0.92,"migration and cell number class":"no change in migration or cell number","mean nuclei count":5966}
{"target gene":"ARMC10 (armadillo repeat containing 10)","siRNA no.":2,"migration relative to mock":0.72,"migration and cell number class":"no change in migration or cell number","mean nuclei count":5634}
{"target gene":"ARMC10 (armadillo repeat containing 10)","siRNA no.":3,"migration relative to mock":0.78,"migration and cell number class":"no change in migration or cell number","mean nuclei count":6092}
{"target gene":"ARMC10 (armadillo repeat containing 10)","siRNA no.":4,"migration relative to mock":0.89,"migration and cell number class":"no change in migration or cell number","mean nuclei count":6410}
{"target gene":"PCDH11X (protocadherin 11 X-linked)","siRNA no.":1,"migration relative to mock":"-0.12 (active)","migration and cell number class":"migration reduced","mean nuclei count":3440}
{"target gene":"PCDH11X (protocadherin 11 X-linked)","siRNA no.":2,"migration relative to mock":0.9,"migration and cell number class":"no change in migration or cell number","mean nuclei count":5428}
{"target gene":"PCDH11X (protocadherin 11 X-linked)","siRNA no.":3,"migration relative to mock":0.82,"migration and cell number class":"no change in migration or cell number","mean nuclei count":6494}
{"target gene":"PCDH11X (protocadherin 11 X-linked)","siRNA no.":4,"migration relative to mock":1.04,"migration and cell number class":"no change in migration or cell number","mean nuclei count":5897}
{"target gene":"PKN2 (protein kinase N2)","siRNA no.":1,"migration relative to mock":0.84,"migration and cell number class":"no change in migration or cell number","mean nuclei count":4664}
{"target gene":"PKN2 (protein kinase N2)","siRNA no.":2,"migration relative to mock":"0.4 (active)","migration and cell number class":"migration reduced","mean nuclei count":5234}
{"target gene":"PKN2 (protein kinase N2)","siRNA no.":3,"migration relative to mock":"0.48 (active)","migration and cell number class":"migration reduced","mean nuclei count":5424}
{"target gene":"PKN2 (protein kinase N2)","siRNA no.":4,"migration relative to mock":"0.56 (active)","migration and cell number class":"migration reduced","mean nuclei count":6008}

2 entries from above in another layout.
ARMC10 (armadillo repeat containing 10) #1
- migration relative to mock: 0.92
- migration and cell number class: no change in migration or cell number
- mean nuclei count: 5966

ARMC10 (armadillo repeat containing 10) #2
- migration relative to mock: 0.72
- migration and cell number class: no change in migration or cell number
- mean nuclei count: 5634

Additional entries follow:
{"target gene":"LGALS1 (galectin 1)","siRNA no.":1,"migration relative to mock":"0.02 (active)","migration and cell number class":"migration reduced","mean nuclei count":3910}
{"target gene":"LGALS1 (galectin 1)","siRNA no.":2,"migration relative to mock":0.26,"migration and cell number class":"too few cells; migration not scored","mean nuclei count":3264}
{"target gene":"LGALS1 (galectin 1)","siRNA no.":3,"migration relative to mock":0.76,"migration and cell number class":"no change in migration or cell number","mean nuclei count":5416}
{"target gene":"LGALS1 (galectin 1)","siRNA no.":4,"migration relative to mock":"0.38 (active)","migration and cell number class":"migration reduced","mean nuclei count":4761}
{"target gene":"ARB2A (ARB2 cotranscriptional regulator A)","siRNA no.":1,"migration relative to mock":1.09,"migration and cell number class":"no change in migration or cell number","mean nuclei count":6332}
{"target gene":"ARB2A (ARB2 cotranscriptional regulator A)","siRNA no.":2,"migration relative to mock":1.14,"migration and cell number class":"no change in migration or cell number","mean nuclei count":5714}
{"target gene":"ARB2A (ARB2 cotranscriptional regulator A)","siRNA no.":3,"migration relative to mock":"0.35 (active)","migration and cell number class":"migration reduced","mean nuclei count":3802}
{"target gene":"ARB2A (ARB2 cotranscriptional regulator A)","siRNA no.":4,"migration relative to mock":1.03,"migration and cell number class":"no change in migration or cell number","mean nuclei count":5422}
{"target gene":"SUMO2 (small ubiquitin like modifier 2)","siRNA no.":1,"migration relative to mock":1.08,"migration and cell number class":"no change in migration or cell number","mean nuclei count":6572}
{"target gene":"SUMO2 (small ubiquitin like modifier 2)","siRNA no.":2,"migration relative to mock":1.16,"migration and cell number class":"no change in migration or cell number","mean nuclei count":5994}
{"target gene":"SUMO2 (small ubiquitin like modifier 2)","siRNA no.":3,"migration relative to mock":1.06,"migration and cell number class":"no change in migration or cell number","mean nuclei count":6812}
{"target gene":"SUMO2 (small ubiquitin like modifier 2)","siRNA no.":4,"migration relative to mock":0.82,"migration and cell number class":"no change in migration or cell number","mean nuclei count":4482}
